# Reference: the supplement of paper PMC8728848
# The list shows a part of the results.
# B1: RsaA-N-term (Caulobacter crescentus), P35828 (protein)
# chain: MAYTTAQLVTAYTNANLGKAPDAATTLTLDAYATQTQTGGLSDAAALTNTLKLVNSTTAVAIQTYQFFTGVAPSAAGLDFLVDSTTNTNDLNDAYYSKFAQENRFINFSINLATGAGAGATAFAAAYTGVSYAQTVATAYDKIIGNAVATAAGVDVAAAVAFLSRQANIDYLTAFVRANTPFTAAADIDLAVKAALIGTILNAATVSGIGGYATATAAMINDLSDGALSTDNAAGVNLFTAYPSSGVSGSTLSLTTGTDTLTGTANNDTFVAGEVAGDGSGWSHPQFEKGG
# Legend:
# Assay in all cases: glycan array binding signal (z-score within array); higher = stronger binding
# Conditions in all cases: glycan notation: IUPAC condensed, linker removed
# [1] = target: Neu5Ac(a2-3)Gal(b1-3)GlcNAc(b1-6)GalNAc
# Method in brief: (§1)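 Glycan array data came from 3228 arrays in the Consortium for Functional Glycomics database, and only arrays with an available protein sequence were kept. Glycan names were put into IUPAC-condensed notation, and columns mapping to the same glycan were averaged. The binding signal is a within-array Z-score, averaged across arrays of one protein sequence run at different concentrations or buffers and across linkers. A negative Z-score can be read as non-binding.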
# [2] = target: Neu5Ac(a2-3)Gal(b1-3)GlcNAc6S
# Method in brief: as §1
# [3] = target: Neu5Ac(a2-3)Gal(b1-3)[Fuc(a1-4)]GlcNAc
# Method in brief: as §1
# [4] = target: Neu5Ac(a2-3)Gal(b1-3)[Fuc(a1-4)]GlcNAc(b1-3)Gal(b1-3)[Fuc(a1-4)]GlcNAc
# Method in brief: as §1
# [5] = target: Neu5Ac(a2-3)Gal(b1-3)[Fuc(a1-4)]GlcNAc(b1-3)Gal(b1-4)[Fuc(a1-3)]GlcNAc
# Method in brief: as §1
# [6] = target: Neu5Ac(a2-3)Gal(b1-3)[GlcNAc(b1-6)]GalNAc
# Method in brief: as §1
# [7] = target: Neu5Ac(a2-3)Gal(b1-3)[Neu5Ac(a2-6)]GalNAc
# Method in brief: as §1
# [8] = target: Neu5Ac(a2-3)Gal(b1-3)[Neu5Ac(a2-6)]GlcNAc(b1-3)[Fuc(a1-3)[Gal(b1-4)]GlcNAc(b1-6)]Gal(b1-4)Glc
# Method in brief: as §1
# [9] = target: Neu5Ac(a2-3)Gal(b1-3)]Neu5Ac(a2-3)Gal(b1-4)]GlcNAc
# Method in brief: as §1
# Neu5Ac(a2-3)Gal(b1-4)Glc = target: Neu5Ac(a2-3)Gal(b1-4)Glc
# Method in brief: as §1
# [10] = target: Neu5Ac(a2-3)Gal(b1-4)GlcNAc
# Method in brief: as §1
# [11] = target: Neu5Ac(a2-3)Gal(b1-4)GlcNAc(b1-2)Man
# Method in brief: as §1
# [12] = target: Neu5Ac(a2-3)Gal(b1-4)GlcNAc(b1-2)Man(a1-3)[GlcNAc(b1-4)][Neu5Ac(a2-3)Gal(b1-4)GlcNAc(b1-2)Man(a1-6)]Man(b1-4)GlcNAc(b1-4)GlcNAc
# Method in brief: as §1
# [13] = target: Neu5Ac(a2-3)Gal(b1-4)GlcNAc(b1-2)Man(a1-3)[Neu5Ac(a2-3)Gal(b1-4)GlcNAc(b1-2)Man(a1-6)]Man(b1-4)GlcNAc(b1-4)GlcNAc
# Method in brief: as §1
# [14] = target: Neu5Ac(a2-3)Gal(b1-4)GlcNAc(b1-2)Man(a1-3)[Neu5Ac(a2-3)Gal(b1-4)GlcNAc(b1-2)Man(a1-6)]Man(b1-4)GlcNAc(b1-4)[Fuc(a1-6)]GlcNAc
# Method in brief: as §1
# [15] = target: Neu5Ac(a2-3)Gal(b1-4)GlcNAc(b1-2)Man(a1-3)[Neu5Ac(a2-6)Gal(b1-4)GlcNAc(b1-2)Man(a1-6)]Man(b1-4)GlcNAc(b1-4)GlcNAc
# Method in brief: as §1
# [16] = target: Neu5Ac(a2-3)Gal(b1-4)GlcNAc(b1-2)[Neu5Ac(a2-3)Gal(b1-4)GlcNAc(b1-4)]Man(a1-3)[GlcNAc(b1-4)][Neu5Ac(a2-3)Gal(b1-4)GlcNAc(b1-2)[Neu5Ac(a2-3)Gal(b1-4)GlcNAc(b1-6)]Man(a1-6)]Man(b1-4)GlcNAc(b1-4)GlcNAc
# Method in brief: as §1
# [17] = target: Neu5Ac(a2-3)Gal(b1-4)GlcNAc(b1-2)[Neu5Ac(a2-3)Gal(b1-4)GlcNAc(b1-4)]Man(a1-3)[GlcNAc(b1-4)][Neu5Ac(a2-3)Gal(b1-4)GlcNAc(b1-4)Man(a1-6)]Man(b1-4)GlcNAc(b1-4)GlcNAc
# Method in brief: as §1
# [18] = target: Neu5Ac(a2-3)Gal(b1-4)GlcNAc(b1-2)[Neu5Ac(a2-3)Gal(b1-4)GlcNAc(b1-6)]Man(a1-6)[Neu5Ac(a2-3)Gal(b1-4)GlcNAc(b1-2)Man(a1-3)][GlcNAc(b1-4)]Man(b1-4)GlcNAc(b1-4)GlcNAc
# Method in brief: as §1
# [19] = target: Neu5Ac(a2-3)Gal(b1-4)GlcNAc(b1-3)Gal
# Method in brief: as §1
# [20] = target: Neu5Ac(a2-3)Gal(b1-4)GlcNAc(b1-3)Gal(b1-3)GlcNAc
# Method in brief: as §1
# [21] = target: Neu5Ac(a2-3)Gal(b1-4)GlcNAc(b1-3)Gal(b1-4)GlcNAc
# Method in brief: as §1
# [22] = target: Neu5Ac(a2-3)Gal(b1-4)GlcNAc(b1-3)Gal(b1-4)GlcNAc(b1-2)Man(a1-3)[Neu5Ac(a2-3)Gal(b1-4)GlcNAc(b1-3)Gal(b1-4)GlcNAc(b1-2)Man(a1-6)]Man(b1-4)GlcNAc(b1-4)GlcNAc
# Method in brief: as §1
# [23] = target: Neu5Ac(a2-3)Gal(b1-4)GlcNAc(b1-3)Gal(b1-4)GlcNAc(b1-3)Gal(b1-4)GlcNAc
# Method in brief: as §1
# [24] = target: Neu5Ac(a2-3)Gal(b1-4)GlcNAc(b1-3)Gal(b1-4)GlcNAc(b1-3)Gal(b1-4)GlcNAc(b1-2)Man(a1-3)[Neu5Ac(a2-3)Gal(b1-4)GlcNAc(b1-3)Gal(b1-4)GlcNAc(b1-3)Gal(b1-4)GlcNAc(b1-2)Man(a1-6)]GalNAc
# Method in brief: as §1
# [25] = target: Neu5Ac(a2-3)Gal(b1-4)GlcNAc(b1-3)Gal(b1-4)GlcNAc(b1-3)GalNAc
# Method in brief: as §1
# [26] = target: Neu5Ac(a2-3)Gal(b1-4)GlcNAc(b1-3)Gal(b1-4)GlcNAc(b1-3)[Neu5Ac(a2-3)Gal(b1-4)GlcNAc(b1-3)Gal(b1-4)GlcNAc(b1-6)]GalNAc
# Method in brief: as §1
# [27] = target: Neu5Ac(a2-3)Gal(b1-4)GlcNAc(b1-3)Gal(b1-4)GlcNAc(b1-6)[Gal(b1-3)]GalNAc
# Method in brief: as §1
# [28] = target: Neu5Ac(a2-3)Gal(b1-4)GlcNAc(b1-3)Gal(b1-4)[Fuc(a1-3)]GlcNAc
# Method in brief: as §1
# [29] = target: Neu5Ac(a2-3)Gal(b1-4)GlcNAc(b1-3)GalNAc
# Method in brief: as §1
binder,measurement,setting,value
B1,glycan array binding signal (z-score),[1],-0.323
same,glycan array binding signal (z-score),[2],0.141
same,glycan array binding signal (z-score),[3],0.624
same,glycan array binding signal (z-score),[4],0.539
same,glycan array binding signal (z-score),[5],0.553
same,glycan array binding signal (z-score),[6],-1.21
same,glycan array binding signal (z-score),[7],-0.716
same,glycan array binding signal (z-score),[8],0.036
same,glycan array binding signal (z-score),[9],-0.603
same,glycan array binding signal (z-score),Neu5Ac(a2-3)Gal(b1-4)Glc,0.251
same,glycan array binding signal (z-score),[10],-0.145
same,glycan array binding signal (z-score),[11],2.51
same,glycan array binding signal (z-score),[12],0.501
same,glycan array binding signal (z-score),[13],-1.12
same,glycan array binding signal (z-score),[14],0.934
same,glycan array binding signal (z-score),[15],1.35
same,glycan array binding signal (z-score),[16],0.408
same,glycan array binding signal (z-score),[17],1.65
same,glycan array binding signal (z-score),[18],-0.474
same,glycan array binding signal (z-score),[19],-0.608
same,glycan array binding signal (z-score),[20],-0.388
same,glycan array binding signal (z-score),[21],-0.428
same,glycan array binding signal (z-score),[22],0.639
same,glycan array binding signal (z-score),[23],0.059
same,glycan array binding signal (z-score),[24],-0.725
same,glycan array binding signal (z-score),[25],-1.2
same,glycan array binding signal (z-score),[26],-0.649
same,glycan array binding signal (z-score),[27],-0.672
same,glycan array binding signal (z-score),[28],-0.112
same,glycan array binding signal (z-score),[29],1.31

# As a short view, part of the list above.
binder,measurement,setting,value
B1,glycan array binding signal (z-score),[24],-0.725
same,glycan array binding signal (z-score),[25],-1.2
